# Test results from the supplement of paper PMC10032668.
# Chains of the proteins cited; added tags and fusions are not shown.
# EIF3J, O75822, UniProt O75822, whole entry: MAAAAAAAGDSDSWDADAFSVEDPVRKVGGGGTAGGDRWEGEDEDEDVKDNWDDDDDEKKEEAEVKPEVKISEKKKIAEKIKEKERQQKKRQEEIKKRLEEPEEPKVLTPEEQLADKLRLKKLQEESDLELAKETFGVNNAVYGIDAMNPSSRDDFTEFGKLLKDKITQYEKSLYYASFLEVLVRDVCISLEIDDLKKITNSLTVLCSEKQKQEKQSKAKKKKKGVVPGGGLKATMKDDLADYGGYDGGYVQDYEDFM
# EIF4B, P23588, UniProt P23588, whole entry: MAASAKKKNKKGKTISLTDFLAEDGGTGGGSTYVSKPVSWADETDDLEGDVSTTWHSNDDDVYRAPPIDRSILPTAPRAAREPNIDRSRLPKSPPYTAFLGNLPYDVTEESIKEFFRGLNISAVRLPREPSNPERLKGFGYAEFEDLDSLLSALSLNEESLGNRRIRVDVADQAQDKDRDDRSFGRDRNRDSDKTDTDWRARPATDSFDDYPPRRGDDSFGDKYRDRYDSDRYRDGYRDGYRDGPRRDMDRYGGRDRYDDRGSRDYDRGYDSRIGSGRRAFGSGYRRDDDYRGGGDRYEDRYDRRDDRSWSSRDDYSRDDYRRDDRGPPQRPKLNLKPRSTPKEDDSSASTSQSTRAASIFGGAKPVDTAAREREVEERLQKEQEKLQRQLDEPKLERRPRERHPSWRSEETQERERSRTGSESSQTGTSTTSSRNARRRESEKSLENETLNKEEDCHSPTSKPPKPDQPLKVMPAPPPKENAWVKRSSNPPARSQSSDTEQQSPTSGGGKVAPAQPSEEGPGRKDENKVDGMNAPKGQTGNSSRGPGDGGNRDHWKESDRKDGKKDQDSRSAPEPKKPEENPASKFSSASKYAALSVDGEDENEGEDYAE
# FABP5, Q01469, UniProt Q01469, whole entry: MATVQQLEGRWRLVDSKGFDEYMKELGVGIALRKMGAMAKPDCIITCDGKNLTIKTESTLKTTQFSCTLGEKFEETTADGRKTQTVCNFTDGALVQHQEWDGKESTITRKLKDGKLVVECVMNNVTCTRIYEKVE
# POM121, Q96HA1, UniProt Q96HA1, whole entry: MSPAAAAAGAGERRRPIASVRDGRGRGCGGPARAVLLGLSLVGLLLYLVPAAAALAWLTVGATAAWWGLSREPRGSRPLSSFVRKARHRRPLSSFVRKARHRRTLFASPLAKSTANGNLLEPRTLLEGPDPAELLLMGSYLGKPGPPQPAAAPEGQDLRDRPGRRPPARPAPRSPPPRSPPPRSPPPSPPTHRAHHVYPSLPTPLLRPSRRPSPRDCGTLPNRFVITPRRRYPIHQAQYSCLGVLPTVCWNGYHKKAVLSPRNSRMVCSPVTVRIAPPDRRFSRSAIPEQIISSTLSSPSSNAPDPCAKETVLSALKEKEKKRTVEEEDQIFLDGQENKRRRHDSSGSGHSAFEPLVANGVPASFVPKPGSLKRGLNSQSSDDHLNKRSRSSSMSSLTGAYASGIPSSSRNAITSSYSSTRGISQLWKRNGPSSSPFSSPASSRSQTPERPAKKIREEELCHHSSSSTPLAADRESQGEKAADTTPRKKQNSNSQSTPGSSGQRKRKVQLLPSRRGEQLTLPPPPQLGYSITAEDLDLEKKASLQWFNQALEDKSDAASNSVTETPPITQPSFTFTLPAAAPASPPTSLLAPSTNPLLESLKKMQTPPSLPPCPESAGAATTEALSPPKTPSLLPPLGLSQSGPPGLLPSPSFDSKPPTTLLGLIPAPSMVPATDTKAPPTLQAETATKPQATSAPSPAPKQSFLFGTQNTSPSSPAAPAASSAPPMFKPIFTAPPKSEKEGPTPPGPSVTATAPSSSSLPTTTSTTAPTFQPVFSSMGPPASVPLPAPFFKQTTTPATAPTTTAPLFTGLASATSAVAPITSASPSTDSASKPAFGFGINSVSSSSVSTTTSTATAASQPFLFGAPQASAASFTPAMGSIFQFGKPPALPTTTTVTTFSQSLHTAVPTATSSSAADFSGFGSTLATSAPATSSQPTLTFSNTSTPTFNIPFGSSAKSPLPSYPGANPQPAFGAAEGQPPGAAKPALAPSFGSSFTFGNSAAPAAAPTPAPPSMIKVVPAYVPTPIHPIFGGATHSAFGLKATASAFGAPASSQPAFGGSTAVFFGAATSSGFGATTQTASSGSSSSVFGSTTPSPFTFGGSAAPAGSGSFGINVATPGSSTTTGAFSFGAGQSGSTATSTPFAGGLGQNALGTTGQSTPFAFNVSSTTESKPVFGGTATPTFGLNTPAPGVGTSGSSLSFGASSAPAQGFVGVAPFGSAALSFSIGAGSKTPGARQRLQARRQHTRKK
# POM121C, A8CG34, UniProt A8CG34, whole entry: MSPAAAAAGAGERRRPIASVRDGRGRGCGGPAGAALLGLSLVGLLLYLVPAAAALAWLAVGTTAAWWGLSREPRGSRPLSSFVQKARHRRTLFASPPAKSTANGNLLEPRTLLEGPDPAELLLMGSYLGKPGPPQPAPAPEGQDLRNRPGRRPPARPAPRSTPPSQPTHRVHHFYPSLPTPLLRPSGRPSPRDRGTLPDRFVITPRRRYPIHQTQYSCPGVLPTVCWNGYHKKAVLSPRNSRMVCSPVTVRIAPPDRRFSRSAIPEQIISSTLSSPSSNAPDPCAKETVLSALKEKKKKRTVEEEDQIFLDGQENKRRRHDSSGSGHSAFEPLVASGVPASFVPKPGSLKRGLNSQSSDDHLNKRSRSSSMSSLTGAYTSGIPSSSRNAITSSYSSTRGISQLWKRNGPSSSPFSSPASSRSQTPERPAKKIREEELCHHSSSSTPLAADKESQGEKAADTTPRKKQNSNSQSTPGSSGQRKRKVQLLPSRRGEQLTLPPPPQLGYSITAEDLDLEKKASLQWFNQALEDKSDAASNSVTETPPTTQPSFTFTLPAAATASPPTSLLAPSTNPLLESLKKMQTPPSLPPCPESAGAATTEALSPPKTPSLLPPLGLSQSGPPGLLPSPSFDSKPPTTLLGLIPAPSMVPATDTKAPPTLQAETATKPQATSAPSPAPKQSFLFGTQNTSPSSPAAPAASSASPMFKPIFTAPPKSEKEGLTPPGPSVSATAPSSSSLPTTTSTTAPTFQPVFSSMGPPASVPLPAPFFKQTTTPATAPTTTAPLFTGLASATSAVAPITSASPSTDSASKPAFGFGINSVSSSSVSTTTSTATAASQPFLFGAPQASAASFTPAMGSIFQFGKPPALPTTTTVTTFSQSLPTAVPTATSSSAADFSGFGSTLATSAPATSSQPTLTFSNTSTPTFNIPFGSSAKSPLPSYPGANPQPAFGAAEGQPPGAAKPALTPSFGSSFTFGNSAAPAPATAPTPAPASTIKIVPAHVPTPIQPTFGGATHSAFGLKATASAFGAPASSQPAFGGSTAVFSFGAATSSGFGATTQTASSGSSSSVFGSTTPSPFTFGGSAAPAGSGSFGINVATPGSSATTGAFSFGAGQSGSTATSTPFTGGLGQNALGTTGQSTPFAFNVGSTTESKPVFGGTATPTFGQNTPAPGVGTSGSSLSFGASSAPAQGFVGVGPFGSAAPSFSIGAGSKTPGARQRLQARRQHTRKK
# PSMD1, Q99460, UniProt Q99460, whole entry: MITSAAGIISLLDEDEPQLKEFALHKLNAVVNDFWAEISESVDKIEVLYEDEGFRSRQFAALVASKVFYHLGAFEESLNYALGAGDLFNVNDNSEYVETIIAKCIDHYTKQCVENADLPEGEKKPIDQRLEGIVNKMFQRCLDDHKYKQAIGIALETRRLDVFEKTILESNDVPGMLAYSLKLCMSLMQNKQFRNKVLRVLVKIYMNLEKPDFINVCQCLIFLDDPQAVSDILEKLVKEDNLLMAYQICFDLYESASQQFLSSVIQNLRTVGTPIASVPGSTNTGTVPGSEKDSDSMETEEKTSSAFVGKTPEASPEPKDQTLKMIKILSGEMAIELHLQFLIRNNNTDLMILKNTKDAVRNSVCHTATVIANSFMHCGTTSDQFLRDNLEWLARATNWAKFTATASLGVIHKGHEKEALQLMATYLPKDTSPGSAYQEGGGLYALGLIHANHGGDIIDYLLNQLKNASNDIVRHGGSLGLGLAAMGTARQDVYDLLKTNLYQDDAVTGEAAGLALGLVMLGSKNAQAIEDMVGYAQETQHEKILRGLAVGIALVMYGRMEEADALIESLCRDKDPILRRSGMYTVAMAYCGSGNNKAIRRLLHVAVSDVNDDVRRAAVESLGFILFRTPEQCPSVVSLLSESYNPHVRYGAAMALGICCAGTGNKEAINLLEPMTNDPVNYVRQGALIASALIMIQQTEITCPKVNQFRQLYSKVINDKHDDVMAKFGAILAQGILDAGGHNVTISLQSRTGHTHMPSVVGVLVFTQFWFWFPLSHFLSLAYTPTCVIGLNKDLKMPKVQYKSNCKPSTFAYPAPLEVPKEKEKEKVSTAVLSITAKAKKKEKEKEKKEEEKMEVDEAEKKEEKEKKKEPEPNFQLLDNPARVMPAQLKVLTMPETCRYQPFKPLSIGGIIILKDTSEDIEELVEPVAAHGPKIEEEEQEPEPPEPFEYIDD
# SNRPA, P09012, UniProt P09012, whole entry: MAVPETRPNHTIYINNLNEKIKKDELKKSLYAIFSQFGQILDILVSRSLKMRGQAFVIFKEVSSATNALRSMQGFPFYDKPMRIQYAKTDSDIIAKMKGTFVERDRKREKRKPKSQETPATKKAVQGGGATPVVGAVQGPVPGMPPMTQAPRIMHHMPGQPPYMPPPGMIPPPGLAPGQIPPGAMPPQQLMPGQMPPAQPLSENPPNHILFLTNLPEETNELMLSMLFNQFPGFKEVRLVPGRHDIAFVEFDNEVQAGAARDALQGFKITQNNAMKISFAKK
# Some of the results follow. Only hits are listed; about a third recur on repeated control peptides.
# Legend:
# Assay in all cases: PRISMA enrichment of interactor (LFQ) in peptide spot vs all other peptide spots (log2 fold change); higher = stronger / more specific binding of the interactor to the peptide
# [1] = target: ACP1, P24666
# Description: (§1)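 PRISMA: 15-aa overlapping tiles (offset 8 aa) of 60 microproteins, plus SOS1/GLUT1 control peptides, were spot-synthesized on cellulose membranes in triplicate. Membranes were incubated with benzonase-treated HEK293T lysate, and bound proteins were identified by LC-MS/MS with LFQ. Enrichment is the log2 fold change of each protein in one spot versus all other spots. Only interactors passing the significance cutoff are listed.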
# [2] = target: AKAP1, Q92667
# Description: as §1
# [3] = target: ARCN1, P48444
# Description: as §1
# [4] = target: CBSL
# Description: as §1
# [5] = target: CCDC137, Q6PK04
# Description: as §1
# [6] = target: CCDC59, Q9P031
# Description: as §1
# [7] = target: CD2BP2, O95400
# Description: as §1
# [8] = target: CDC45, O75419
# Description: as §1
# [9] = target: COPG2, Q9UBF2
# Description: as §1
# [10] = target: CTNND1, O60716
# Description: as §1
# [11] = target: DEK, P35659
# Description: as §1
# [12] = target: DPM3, Q9P2X0
# Description: as §1
# [13] = target: EEF1AKNMT, Q8N6R0
# Description: as §1
# [14] = target: EIF3J, O75822
# Description: as §1
# [15] = target: EIF4B, P23588
# Description: as §1
# [16] = target: EXOC8, Q8IYI6
# Description: as §1
# [17] = target: FABP5, Q01469
# Description: as §1
# [18] = target: GALK1, P51570
# Description: as §1
# [19] = target: HNRNPH2, P55795
# Description: as §1
# [20] = target: HYOU1, Q9Y4L1
# Description: as §1
# [21] = target: KTN1, Q86UP2
# Description: as §1
# [22] = target: MAGT1, Q9H0U3
# Description: as §1
# [23] = target: MAZ, P56270
# Description: as §1
# [24] = target: MRPL14, Q6P1L8
# Description: as §1
# [25] = target: MTPAP, Q9NVV4
# Description: as §1
# [26] = target: NAP1L4, Q99733
# Description: as §1
# [27] = target: OXA1L, Q15070
# Description: as §1
# [28] = target: P3H1, Q32P28
# Description: as §1
# [29] = target: PAF1, Q8N7H5
# Description: as §1
# [30] = target: PCM1, Q15154
# Description: as §1
# [31] = target: PDCD6IP, Q8WUM4
# Description: as §1
# [32] = target: PDS5B, Q9NTI5
# Description: as §1
# [33] = target: PLS3, P13797
# Description: as §1
# [34] = target: POM121, Q96HA1
# Description: as §1
# [35] = target: POM121C, A8CG34
# Description: as §1
# [36] = target: PSMD1, Q99460
# Description: as §1
# [37] = target: RAE1, P78406
# Description: as §1
# [38] = target: RALY, Q9UKM9
# Description: as §1
# [39] = target: RPUSD4, Q96CM3
# Description: as §1
# [40] = target: SCYL2, Q6P3W7
# Description: as §1
# [41] = target: SEC16A, O15027
# Description: as §1
# [42] = target: SNRPA, P09012
# Description: as §1
# [43] = target: SPAG5, Q96R06
# Description: as §1
# [44] = target: SQSTM1, Q13501
# Description: as §1
# [45] = target: TAGLN2, P37802
# Description: as §1
# [46] = target: TMTC3, Q6ZXV5
# Description: as §1
# [47] = target: USP34, Q70CQ2
# Description: as §1
# [48] = target: UTP18, Q9Y5J1
# Description: as §1
# [49] = target: ZNF281, Q9Y2X9
# Description: as §1
binder,measurement,setting,value
SRTAGPAATWTGIQR [TBX5-AS1],PRISMA enrichment of interactor (log2),[1],7.49
same,PRISMA enrichment of interactor (log2),[2],4.86
same,PRISMA enrichment of interactor (log2),[3],4.39
same,PRISMA enrichment of interactor (log2),[4],5.45
same,PRISMA enrichment of interactor (log2),[5],5.63
same,PRISMA enrichment of interactor (log2),[6],4.43
same,PRISMA enrichment of interactor (log2),[7],4.02
same,PRISMA enrichment of interactor (log2),[8],4.33
same,PRISMA enrichment of interactor (log2),[9],4.44
same,PRISMA enrichment of interactor (log2),[10],6.37
same,PRISMA enrichment of interactor (log2),[11],4.55
same,PRISMA enrichment of interactor (log2),[12],5.22
same,PRISMA enrichment of interactor (log2),[13],5.49
same,PRISMA enrichment of interactor (log2),[14],5.46
same,PRISMA enrichment of interactor (log2),[15],6.15
same,PRISMA enrichment of interactor (log2),[16],4.61
same,PRISMA enrichment of interactor (log2),[17],7.85
same,PRISMA enrichment of interactor (log2),[18],5.07
same,PRISMA enrichment of interactor (log2),[19],7.82
same,PRISMA enrichment of interactor (log2),[20],8.25
same,PRISMA enrichment of interactor (log2),[21],4.16
same,PRISMA enrichment of interactor (log2),[22],7.75
same,PRISMA enrichment of interactor (log2),[23],7.66
same,PRISMA enrichment of interactor (log2),[24],5.05
same,PRISMA enrichment of interactor (log2),[25],4.96
same,PRISMA enrichment of interactor (log2),[26],5.94
same,PRISMA enrichment of interactor (log2),[27],7.23
same,PRISMA enrichment of interactor (log2),[28],7.37
same,PRISMA enrichment of interactor (log2),[29],5.1
same,PRISMA enrichment of interactor (log2),[30],4.19
same,PRISMA enrichment of interactor (log2),[31],4.63
same,PRISMA enrichment of interactor (log2),[32],7.85
same,PRISMA enrichment of interactor (log2),[33],6.54
same,PRISMA enrichment of interactor (log2),[34],7.39
same,PRISMA enrichment of interactor (log2),[35],6.3
same,PRISMA enrichment of interactor (log2),[36],5.55
same,PRISMA enrichment of interactor (log2),[37],5.29
same,PRISMA enrichment of interactor (log2),[38],7.29
same,PRISMA enrichment of interactor (log2),[39],5.33
same,PRISMA enrichment of interactor (log2),[40],3.81
same,PRISMA enrichment of interactor (log2),[41],4.54
same,PRISMA enrichment of interactor (log2),[42],4.94
same,PRISMA enrichment of interactor (log2),[43],4.02
same,PRISMA enrichment of interactor (log2),[44],6.89
same,PRISMA enrichment of interactor (log2),[45],5.27
same,PRISMA enrichment of interactor (log2),[46],4.51
same,PRISMA enrichment of interactor (log2),[47],4.17
same,PRISMA enrichment of interactor (log2),[48],5.14
same,PRISMA enrichment of interactor (log2),[49],6

# A second format for part of the listing above:
binder | measurement | setting | value
SRTAGPAATWTGIQR [TBX5-AS1] | PRISMA enrichment of interactor (log2) | [11] | 4.55
same | PRISMA enrichment of interactor (log2) | [46] | 4.51
same | PRISMA enrichment of interactor (log2) | [48] | 5.14
